# Taken from: PubChem BioAssay AID1259308 (NCATS, 2017)
# Test: 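Knock-downs that increase output of a recombinant reporter protein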 (primary screen)
# Cells: human HEK293 embryonic kidney cells stably expressing firefly luciferase (HEK-CMV-Luc2-Hygro)
# Reagents: single siRNA against human genes, 0.8 pmol siRNA per well
# Time to read-out: 72 h
# Measurement: 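Luciferase light (ONE-Glo) measured on one replicate plate set and viability (CellTiter-Glo) on the other, scaled to a negative control siRNA, with robust z-scores and luciferase per cell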
# Scale: total luciferase, z-score and total luciferase, % of control: higher = more reporter protein produced; luciferase per cell, z-score: higher = more reporter output per viable cell; viable cells, % of control: higher = more viable cells
# Call rule: 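An siRNA counts as active if its total luciferase robust z-score exceeds 3; genes with two or more such siRNAs out of three were retested with fresh siRNAs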
# Calls: active = raised luciferase; inactive = no rise
# The whole screen tested about 59,000 reagents; shown is a random part of them. Of all reagents, about 1,510 (2.6%) got an active call. 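Calls use total luciferase alone and ignore viability, so some active siRNAs may act by altering cell number.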 Reagents against one gene are numbered here. No sequences are given here.
Gene,reagent,"total luciferase, z-score","total luciferase, % of control","luciferase per cell, z-score","viable cells, % of control",Call
TNFRSF25,1,-0.187,78.2,0.627,74.1,inactive
TNFRSF25,2,0.907,99.9,1.48,75.5,inactive
TNFRSF25,3,-0.0744,80.4,-0.598,105,inactive
SIGLEC1,1,0.143,84.7,-0.428,106,inactive
SIGLEC1,2,0.442,90.7,-0.135,105,inactive
SIGLEC1,3,1.77,117,1.25,94.2,inactive
SREBF2,1,1,102,0.029,113,inactive
SREBF2,2,-1.23,57.4,-1.26,89.3,inactive
SREBF2,3,0.407,90,0.0542,99.1,inactive
GALNT13,1,-0.254,76.8,-0.272,92.2,inactive
GALNT13,2,1,102,0.547,98.5,inactive
GALNT13,3,-0.0263,81.4,-0.289,98.1,inactive
KRABD1,1,0.557,93,-0.542,120,inactive
KRABD1,2,-0.811,65.8,-1.18,100,inactive
KRABD1,3,-0.235,77.2,-1.1,115,inactive
OTOF,1,-0.239,77.1,-0.234,91.7,inactive
OTOF,2,0.393,89.7,0.692,83.5,inactive
OTOF,3,-1.08,60.3,-0.757,82.3,inactive
ZNF407,1,0.819,98.2,0.329,101,inactive
ZNF407,2,-1.19,58.2,-0.836,81.1,inactive
ZNF407,3,0.332,88.5,0.797,80.2,inactive

7 entries already listed, arranged by “viable cells, % of control”, highest first.
Gene,reagent,"total luciferase, z-score","total luciferase, % of control","luciferase per cell, z-score","viable cells, % of control",Call
KRABD1,1,0.557,93,-0.542,120,inactive
KRABD1,3,-0.235,77.2,-1.1,115,inactive
KRABD1,2,-0.811,65.8,-1.18,100,inactive
GALNT13,3,-0.0263,81.4,-0.289,98.1,inactive
OTOF,1,-0.239,77.1,-0.234,91.7,inactive
OTOF,2,0.393,89.7,0.692,83.5,inactive
OTOF,3,-1.08,60.3,-0.757,82.3,inactive

Next entries follow:
Gene,reagent,"total luciferase, z-score","total luciferase, % of control","luciferase per cell, z-score","viable cells, % of control",Call
RPTN,1,1.54,113,0.783,102,inactive
RPTN,2,1.75,117,1.64,84.7,inactive
RPTN,3,4.7,175,3.47,78.6,active
LIAT1,1,-1.12,59.7,-0.538,76.8,inactive
LIAT1,2,0.66,95,0.517,92.7,inactive
LIAT1,3,0.562,93.1,0.567,89.6,inactive
FAXC,1,-2.16,39,-2.91,93.8,inactive
FAXC,2,0.00979,82.1,-0.293,99.1,inactive
FAXC,3,-0.434,73.3,-0.819,102,inactive
LMNTD2,1,-0.179,78.3,0.228,82.4,inactive
LMNTD2,2,-1.6,50.1,-1.2,77,inactive
LMNTD2,3,1.39,109,2.24,67.9,inactive
PIGP,1,-1.65,49.2,-1.86,89.7,inactive
PIGP,2,1.35,109,0.353,111,inactive
PIGP,3,-0.13,79.3,1.57,58.6,inactive
RAB32,1,-1.77,46.7,-1.47,76.9,inactive
RAB32,2,-0.911,63.8,-0.0495,72.2,inactive
RAB32,3,-1.54,51.3,-1.56,86.5,inactive
FLVCR1,1,-1.11,59.8,-1.24,92.8,inactive
FLVCR1,2,0.0777,83.4,-0.35,102,inactive
FLVCR1,3,-0.752,66.9,0.256,69.9,inactive
CXCR2,1,0.658,95,0.148,102,inactive
CXCR2,2,-0.0617,80.7,-0.71,109,inactive
CXCR2,3,-2.51,32,-3.46,88.9,inactive
EIF2S2P4,1,0.0185,82.3,0.786,74.7,inactive
EIF2S2P4,2,0.125,84.4,0.781,76.8,inactive
EIF2S2P4,3,-2.82,25.9,-3.39,70.6,inactive
CINP,1,-1.12,59.7,-1.35,95.2,inactive
CINP,2,1.21,106,0.467,105,inactive
CINP,3,-0.183,78.3,0.12,84.7,inactive
ZNF358,1,3.11,144,2.38,85.9,active
ZNF358,2,0.218,86.2,2.59,48.7,inactive
ZNF358,3,3.8,157,3.99,61.5,active
ARFGAP1,1,0.0744,83.4,-0.537,107,inactive
ARFGAP1,2,1.04,103,0.388,103,inactive
ARFGAP1,3,3.84,158,2.16,100,active
